# In PubChem BioAssay AID1487 (National Center for Advancing Translational Sciences (NCATS), 2009):
# The list shows a part of the results. These are further read-outs of the screen, such as a control signal, another cell line or another target. No call is given for them. The list favours compounds with an active or inconclusive main result. Words in brackets tell the shape of the fitted curve; partial curves, single points and poor fits give uncertain potencies.
# Assay: qHTS Assay for Modulators of Lamin A Splicing
# Settings: HeLa LMNA splicing GFP/RFP minigene ratio, 48 h
# Summary of the method: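 Read-out is the ratio of GFP to DsRed2 object intensity, acquired by 488 nm laser-scanning cytometry on HeLa lamin A-EGFP minigene reporter cells. Compound incubation 48 hrs at 37 °C in Opti-MEM with 2% FBS; DMSO 0.5% final.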
# [1] = measured here: GFP splicing reporter channel
# [2] = measured here: RFP viability control channel
SMILES,AC50 [1],AC50 [2]
O=C(/C=C/c1cccc([N+](=O)[O-])c1)n1cnc2ccccc21,"0.224 µM [falling, partial curve]","0.891 µM [falling, partial curve, poor fit]"
COc1ccccc1C(=O)NCC(=O)N/N=C/c1cn[nH]c1-c1ccccc1,"10 µM [falling, partial curve]",
Cc1c(Cl)cccc1NC(=O)CSc1nc(=O)n(CCN2CCOCC2)c2c1CCC2,"0.631 µM [falling, full curve, poor fit]",
O=C(N/C(=C\c1cccs1)C(=O)N1CCOCC1)c1cccs1,,"3.16 µM [falling, full curve]"
O=C(/C=C/c1ccccc1)Nc1ncn[nH]1,"3.16 µM [falling, partial curve]","20 µM [falling, partial curve, poor fit]"
COC(=O)C1=C(C)N(CC2CC2)C(=O)N[C@H]1c1ccc(Br)cc1,"35.5 µM [rising, single point]",
COc1cc(/C=N/Nc2ccc3ccccc3c2)ccc1OC(=O)c1ccco1,,"35.5 µM [rising, single point]"
CCOC(=O)Nc1ccc2c(c1)N(C(=O)CCN1CCOCC1)c1ccccc1S2=O (stereo unspecified),,"10 µM [rising, partial curve]"
O=C(CCCN1C(=O)C2CCCCN2C1=O)N1CCN(c2ccc([N+](=O)[O-])cc2)CC1 (stereo unspecified),,"12.6 µM [rising, partial curve]"
CS(=O)(=O)Nc1cccc(-c2nc(NCc3ccccc3)c3ccccc3n2)c1,"20 µM [falling, single point]","15.8 µM [falling, single point]"
CCNC(=S)NNC(=O)CCn1cc(C)cn1,,"0.01 µM [falling, full curve, poor fit]"
Cc1sc2nc(SCC(=O)C(C)(C)C)n(Cc3ccco3)c(=O)c2c1C,"12.6 µM [falling, partial curve]","6.31 µM [falling, partial curve]"
CCOC(=O)C1CCN(CC(=O)Nc2c(C(=O)OC)[nH]c3ccc(Cl)cc23)CC1,,"14.1 µM [rising, single point]"
OC(CN1CCN(c2cccc(C(F)(F)F)c2)CC1)c1c[nH]c2ccccc12 (stereo unspecified),"8.91 µM [falling, single point]",
Cc1ccc2c(c1)C(c1ccncc1)=NNC(c1cccnc1)=N2,"0.0316 µM [falling, full curve, poor fit]","0.0282 µM [falling, full curve, poor fit]"
O=C(CN1CCCC1)N1CCCC(c2ccc(F)cc2)c2ccc(F)cc21 (stereo unspecified),"0.112 µM [falling, full curve, poor fit]",

# Fetched by compound from the entries so far, 2 records:
SMILES,AC50 [1],AC50 [2]
Cc1ccc2c(c1)C(c1ccncc1)=NNC(c1cccnc1)=N2,"0.0316 µM [falling, full curve, poor fit]","0.0282 µM [falling, full curve, poor fit]"
O=C(CCCN1C(=O)C2CCCCN2C1=O)N1CCN(c2ccc([N+](=O)[O-])cc2)CC1 (stereo unspecified),,"12.6 µM [rising, partial curve]"
